{"source": "patent US7732666B1", "about": "“O-methyltransferase gene from sorghum cloning, expression, transformation and characterization” (priority 2006, dated 2010)", "test": "Sorgoleone content determination by HPLC of root exudates", "parameters": "species or system Sorghum bicolor", "conditions": "BTx623 seedlings", "data": [{"smiles": "C=CC/C=C\\C/C=C\\CCCCCCCC1=C(O)C(=O)C=C(OC)C1=O", "note": "[sorgoleone, 2-hydroxy-5-methoxy-3-[(Z,Z)-8′,11′,14′-pentadecatriene]-p-benzoquinone]", "values": [{"measurement": "share of the exudate material", "value": 41, "unit": "%-w/w"}]}]}
